This note sets out measurements from PMC7819943, “Rice protein-binding microarrays: a tool to detect cis-acting elements near promoter regions in rice”.

Sequences of proteins named here, by UniProt entry; tags and fusion partners are left off.
UniProt Q0JBA9, entry or part of it: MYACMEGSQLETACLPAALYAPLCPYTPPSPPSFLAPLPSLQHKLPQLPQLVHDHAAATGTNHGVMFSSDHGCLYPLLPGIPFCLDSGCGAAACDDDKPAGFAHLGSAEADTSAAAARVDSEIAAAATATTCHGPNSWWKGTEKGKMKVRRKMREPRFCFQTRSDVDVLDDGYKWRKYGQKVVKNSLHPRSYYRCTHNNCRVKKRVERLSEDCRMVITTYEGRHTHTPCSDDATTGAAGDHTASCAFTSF

Some of the results follow.

The test has as its target OsWRKY34 (Oryza sativa, UniProt Q0JBA9 1-250). As to the kind of experiment: protein-binding microarray (RPBM); PBS, 2% BSA, 51.3 ng/ul salmon testes DNA, 50 uM zinc acetate, 200 nM TF, 25 C, 1 h; high values mean tight binding. The following applies: protein: recombinant; tags: N-terminal polyhistidine and DsRed monomer fusion (pET32a); label: CyDye5-dUTP incorporated in the synthesized complementary strand; 3' TTTTT single-stranded linker to array surface; dsDNA, one strand shown. Put shortly: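 An Axon 4000B scanner gave the binding signal as per-feature fluorescence intensity in arbitrary units. This followed washing of a custom Agilent array that had been incubated for 1 h at 25 °C with 200 nM protein in PBS, 2% BSA, salmon testes DNA and 50 µM zinc acetate. The proteins were transcription factors fused at the N-terminus to polyhistidine and DsRed, expressed in E. coli BL21-CodonPlus and purified on Ni–NTA.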
Consider “GCATCACCATTCTATACATCACTGTGTTCATTATGAGCTTCGGAGTCACCTAGTGCAG”, for which the binding signal was 10500 fluorescence intensity (a.u.).
“TGCTGGTCTCCCATCGTCTATCCCGCTTCCATCTCACATTCGGAGTCACCTAGTGCAG”: the binding signal was 8860 fluorescence intensity (a.u.).
The value for “TCATCGTAATAGGATACCACATCTCGTATTCGATCATCGACGGAGTCACCTAGTGCAG” was 8730 fluorescence intensity (a.u.); that for “ATACCCTAGCATCGACGATCCTCATACCATGCAAATACCACGGAGTCACCTAGTGCAG” was 8240 fluorescence intensity (a.u.); that for “CACCTTCTTTTTCTCTCTCTCTCTCTCTCTCTTTCTCATCCGGAGTCACCTAGTGCAG” was 10300 fluorescence intensity (a.u.).
Consider “TATATATATATATATATATATATATATATGAGAAGGTTACCGGAGTCACCTAGTGCAG”, for which the binding signal is 11000 fluorescence intensity (a.u.).
Regarding “CTTAACGCATTTAATATATGGTCAATTCTGTCAATCTATGCGGAGTCACCTAGTGCAG”, the binding signal was 8340 fluorescence intensity (a.u.).
Take “TTAACTCTTTCGTCGCCATGCTATTTTTCCTTTTCTTTATCGGAGTCACCTAGTGCAG”: the binding signal was 10800 fluorescence intensity (a.u.).
In the case of “GGAATATTCTCACATCTCAGCCATCCATTTTCCATCTCAACGGAGTCACCTAGTGCAG”, the binding signal was 9090 fluorescence intensity (a.u.).
As for “GAATTCTCCATGTGTTGTGTTCGTCTTCTTCCTCCAGCTACGGAGTCACCTAGTGCAG”, the binding signal was 8650 fluorescence intensity (a.u.).
For the sequence “CCTGTAAGTTCTTCCGCATGTGCTAAGCTTGTGTTTTCTTCGGAGTCACCTAGTGCAG”, the binding signal was 8920 fluorescence intensity (a.u.).
Take “ACGCGCCATCTCGCCGCTCGGTGGCTTCTTCTTCTTCTACCGGAGTCACCTAGTGCAG”: the binding signal is 10100 fluorescence intensity (a.u.).
With “GTAGTCTTGGTTATATCCGAGCTAGTTGTGTCCTCATCAACGGAGTCACCTAGTGCAG” the figure was 9540 fluorescence intensity (a.u.); with “AGAGAGGGGTGGTGGTGGACTCATTCGCGCGACCAAGTATCGGAGTCACCTAGTGCAG”, 9720 fluorescence intensity (a.u.).
The value for “GTTTTTTTTTTCTTCTTACTCCCTCCGTTCCATTTTAAGTCGGAGTCACCTAGTGCAG” was 9980 fluorescence intensity (a.u.).
The value for “CACTACAGTATTTGCAAATTTCACCCAAACACATCGGTCTCGGAGTCACCTAGTGCAG” was 8880 fluorescence intensity (a.u.); that for “TCTGATCGATCTTTACCGCTAGCTGCAGTTTTCTTGGGCGCGGAGTCACCTAGTGCAG” was 8100 fluorescence intensity (a.u.).
Take “TCCTACCTGACACATCCCGATGCGTTGCCAGCTCATCCCGCGGAGTCACCTAGTGCAG”: the binding signal was 9370 fluorescence intensity (a.u.).
With “ATGTTTCGTGATTTCTTTTTCTTCTTCCTTGACGAGTTTTCGGAGTCACCTAGTGCAG” the figure was 8360 fluorescence intensity (a.u.).
The value for “ATCTCATCTATTTTCACCATGTGTACACCTCCCTCAATATCGGAGTCACCTAGTGCAG” was 9280 fluorescence intensity (a.u.).
With “CTGGTGGTTTTGCTGTTTATTTGGGTGACAATCTTGTTTCCGGAGTCACCTAGTGCAG” the figure was 9450 fluorescence intensity (a.u.); with “GAATCGGCCTGTTCCTTTTCCATTGATTTTCACAGTCTTTCGGAGTCACCTAGTGCAG”, 12100 fluorescence intensity (a.u.).
With “ATGGTAGCCAAGCCCACTCGACCACCCCACAGGCCCACACCGGAGTCACCTAGTGCAG”, the binding signal is 8150 fluorescence intensity (a.u.).
For “GTACTCCCTCCATCCCTAAATGTTTGACGCCGTTGACTTTCGGAGTCACCTAGTGCAG”, the binding signal was 16000 fluorescence intensity (a.u.).
With “TCATACTCGTCTATACCATAGAACATGCCCTTAATATCTTCGGAGTCACCTAGTGCAG”, the binding signal is 8630 fluorescence intensity (a.u.).
For the sequence “TTAGGTCTCACAACGCCATCTTGCAAGCCAAACAACTGCCCGGAGTCACCTAGTGCAG”, the binding signal is 8670 fluorescence intensity (a.u.).
With “GTTGTCTTGTGGGAATTATTTTTTCTGTCCAAGTTGGCCGCGGAGTCACCTAGTGCAG” the figure was 8030 fluorescence intensity (a.u.); with “GACGGTGACGAACTAGGTTTCTTTTTTTTCTTTTTTCTTTCGGAGTCACCTAGTGCAG”, 11600 fluorescence intensity (a.u.).
The value for “CTCAATCGATAAACCCTAGTATTAACTTGCTTTATTCCTCCGGAGTCACCTAGTGCAG” was 8300 fluorescence intensity (a.u.); that for “CGGGCCTCCTCGCCGCCGTGCTCCTCTCCTCCCTCCTCGACGGAGTCACCTAGTGCAG” was 8040 fluorescence intensity (a.u.); that for “CCGAGCCACAACCATAGCCTCACGTCATCTTCCCCTTTCACGGAGTCACCTAGTGCAG” was 8730 fluorescence intensity (a.u.).
The value for “AAAAATTCGTCTCGTGATTTTCTCCCTACCTGCGCAATTACGGAGTCACCTAGTGCAG” was 9240 fluorescence intensity (a.u.).
On to “GTATACCTGCGCGTATACGGATGTTTTCGGCGTACATTAACGGAGTCACCTAGTGCAG”, for which the binding signal was 8390 fluorescence intensity (a.u.).
The value for “GCCCGTCGTCGTCCCACTAGTTCGATCGATCGCCACCATGCGGAGTCACCTAGTGCAG” was 8570 fluorescence intensity (a.u.).
The value for “CTCATCCTAACTCCTGCTTGTTTTTTCATGTAAACACTTCCGGAGTCACCTAGTGCAG” was 8080 fluorescence intensity (a.u.); that for “GTTAAGGGTGTGTTTGGATGGATATTATGGCGGCTTGTATCGGAGTCACCTAGTGCAG” was 8390 fluorescence intensity (a.u.); that for “TCTCGTTCTGTAAAGTGTCCTTTGCGGTATTCAGAATTTCCGGAGTCACCTAGTGCAG” was 8060 fluorescence intensity (a.u.).
The value for “GTAGCTATAAACCCAGCGCGCCGTGAAGGCCTCTCTTTCCCGGAGTCACCTAGTGCAG” was 8920 fluorescence intensity (a.u.); that for “CGTGCACGTTCACGCCTTCTATGCTTCACACCAACGTTCACGGAGTCACCTAGTGCAG” was 8850 fluorescence intensity (a.u.).
For “TTAGCTTGTATCCTGTGGCCATTGATGCTGCTTTCTCTGTCGGAGTCACCTAGTGCAG”, the binding signal is 8570 fluorescence intensity (a.u.).
“AGTACTCCTCCGTTCTAAATTAGATGTCGTTTTGATTTTTCGGAGTCACCTAGTGCAG”: the binding signal is 8570 fluorescence intensity (a.u.).
The value for “CTGATAGCCAGCCAAAAACATTTCTTCTACTATAGCTACTCGGAGTCACCTAGTGCAG” was 8060 fluorescence intensity (a.u.).
